# Assay results taken from the supplement of paper PMC8728848.
# This is one part of the list.
# B1: MUB70 (Lactobacillus reuteri) (protein)
# chain: CVHVQYIDGETDQMLRQDDLDGYTDETIPYSTAEGIKKFEGDGYELFKDNFPAGEKFDNDDTNDQFYTVIF
# How the values were obtained:
# Assay in all cases: glycan array binding signal (z-score within array); higher = stronger binding
# Conditions in all cases: glycan notation: IUPAC condensed, linker removed
# [1] = biological target: Neu5Ac(a2-3)Gal(b1-4)GlcNAc(b1-3)[Neu5Ac(a2-3)Gal(b1-4)GlcNAc(b1-6)]GalNAc
# In short: (§1)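 From the Consortium for Functional Glycomics database, 3228 arrays were curated, keeping only those whose protein sequence was available. Binding is given as a within-array Z-score averaged across arrays sharing a protein sequence and across linkers. Negative Z-scores can be read as non-binding.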
# [2] = biological target: Neu5Ac(a2-3)Gal(b1-4)GlcNAc(b1-6)GalNAc
# In short: as §1
# [3] = biological target: Neu5Ac(a2-3)Gal(b1-4)GlcNAc(b1-6)[Gal(b1-3)]GalNAc
# In short: as §1
# [4] = biological target: Neu5Ac(a2-3)Gal(b1-4)GlcNAc(b1-6)[Neu5Ac(a2-3)Gal(b1-3)]GalNAc
# In short: as §1
# [5] = biological target: Neu5Ac(a2-3)Gal(b1-4)GlcNAc6S
# In short: as §1
# [6] = biological target: Neu5Ac(a2-3)Gal(b1-4)[Fuc(a1-3)]GlcNAc
# In short: as §1
# [7] = biological target: Neu5Ac(a2-3)Gal(b1-4)[Fuc(a1-3)]GlcNAc(b1-2)Man
# In short: as §1
# [8] = biological target: Neu5Ac(a2-3)Gal(b1-4)[Fuc(a1-3)]GlcNAc(b1-3)Gal
# In short: as §1
# [9] = biological target: Neu5Ac(a2-3)Gal(b1-4)[Fuc(a1-3)]GlcNAc(b1-3)Gal(b1-4)GlcNAc
# In short: as §1
# [10] = biological target: Neu5Ac(a2-3)Gal(b1-4)[Fuc(a1-3)]GlcNAc(b1-3)Gal(b1-4)[Fuc(a1-3)]GlcNAc(b1-3)Gal(b1-4)[Fuc(a1-3)]GlcNAc
# In short: as §1
# [11] = biological target: Neu5Ac(a2-3)Gal(b1-4)[Fuc(a1-3)]GlcNAc(b1-3)GalNAc
# In short: as §1
# [12] = biological target: Neu5Ac(a2-3)Gal(b1-4)[Fuc(a1-3)]GlcNAc(b1-6)[Gal(b1-3)]GalNAc
# In short: as §1
# [13] = biological target: Neu5Ac(a2-3)Gal(b1-4)[Fuc(a1-3)]GlcNAc(b1-6)[Neu5Ac(a2-3)Gal(b1-3)]GalNAc
# In short: as §1
# [14] = biological target: Neu5Ac(a2-3)Gal(b1-4)[Fuc(a1-3)]GlcNAc6S
# In short: as §1
# [15] = biological target: Neu5Ac(a2-3)Gal6S(b1-4)GlcNAc
# In short: as §1
# [16] = biological target: Neu5Ac(a2-3)Gal6S(b1-4)[Fuc(a1-3)]GlcNAc
# In short: as §1
# Neu5Ac(a2-3)GalNAc = biological target: Neu5Ac(a2-3)GalNAc
# In short: as §1
# [17] = biological target: Neu5Ac(a2-3)GalNAc(b1-4)GlcNAc
# In short: as §1
# [18] = biological target: Neu5Ac(a2-3)[GalNAc(b1-4)]Gal(b1-4)Glc
# In short: as §1
# [19] = biological target: Neu5Ac(a2-3)[GalNAc(b1-4)]Gal(b1-4)GlcNAc
# In short: as §1
# [20] = biological target: Neu5Ac(a2-3)[GalNAc(b1-4)]Gal(b1-4)GlcNAc(b1-3)GalNAc
# In short: as §1
# [21] = biological target: Neu5Ac(a2-3)[Neu5Ac(a2-6)]GalNAc
# In short: as §1
# Neu5Ac(a2-6)Gal = biological target: Neu5Ac(a2-6)Gal
# In short: as §1
# [22] = biological target: Neu5Ac(a2-6)Gal(b1-3)GlcNAc(b1-3)[Gal(b1-4)GlcNAc(b1-6)]Gal(b1-4)Glc
# In short: as §1
# Neu5Ac(a2-6)Gal(b1-4)Glc = biological target: Neu5Ac(a2-6)Gal(b1-4)Glc
# In short: as §1
# [23] = biological target: Neu5Ac(a2-6)Gal(b1-4)GlcNAc
# In short: as §1
# [24] = biological target: Neu5Ac(a2-6)Gal(b1-4)GlcNAc(b1-2)Man
# In short: as §1
# [25] = biological target: Neu5Ac(a2-6)Gal(b1-4)GlcNAc(b1-2)Man(a1-3)Man(b1-4)GlcNAc(b1-4)GlcNAc
# In short: as §1
# [26] = biological target: Neu5Ac(a2-6)Gal(b1-4)GlcNAc(b1-2)Man(a1-3)[Gal(b1-4)GlcNAc(b1-2)Man(a1-6)]Man(b1-4)GlcNAc(b1-4)GlcNAc
# In short: as §1
# [27] = biological target: Neu5Ac(a2-6)Gal(b1-4)GlcNAc(b1-2)Man(a1-3)[GlcNAc(b1-2)Man(a1-6)]Man(b1-4)GlcNAc(b1-4)GlcNAc
# In short: as §1
# [28] = biological target: Neu5Ac(a2-6)Gal(b1-4)GlcNAc(b1-2)Man(a1-3)[GlcNAc(b1-4)][Neu5Ac(a2-6)Gal(b1-4)GlcNAc(b1-2)Man(a1-6)]Man(b1-4)GlcNAc(b1-4)GlcNAc
# In short: as §1
# [29] = biological target: Neu5Ac(a2-6)Gal(b1-4)GlcNAc(b1-2)Man(a1-3)[Man(a1-6)]Man(b1-4)GlcNAc(b1-4)GlcNAc
# In short: as §1
# [30] = biological target: Neu5Ac(a2-6)Gal(b1-4)GlcNAc(b1-2)Man(a1-3)[Neu5Ac(a2-3)Gal(b1-4)GlcNAc(b1-2)Man(a1-6)]Man(b1-4)GlcNAc(b1-4)GlcNAc
# In short: as §1
# [31] = biological target: Neu5Ac(a2-6)Gal(b1-4)GlcNAc(b1-2)Man(a1-3)[Neu5Ac(a2-6)Gal(b1-4)GlcNAc(b1-2)Man(a1-6)]Man(b1-4)GlcNAc(b1-4)GlcNAc
# In short: as §1
# [32] = biological target: Neu5Ac(a2-6)Gal(b1-4)GlcNAc(b1-2)Man(a1-3)[Neu5Ac(a2-6)Gal(b1-4)GlcNAc(b1-2)Man(a1-6)]Man(b1-4)GlcNAc(b1-4)[Fuc(a1-6)]GlcNAc
# In short: as §1
# [33] = biological target: Neu5Ac(a2-6)Gal(b1-4)GlcNAc(b1-2)Man(a1-6)Man(b1-4)GlcNAc(b1-4)GlcNAc
# In short: as §1
# [34] = biological target: Neu5Ac(a2-6)Gal(b1-4)GlcNAc(b1-2)Man(a1-6)[Gal(b1-4)GlcNAc(b1-2)Man(a1-3)]Man(b1-4)GlcNAc(b1-4)GlcNAc
# In short: as §1
# [35] = biological target: Neu5Ac(a2-6)Gal(b1-4)GlcNAc(b1-2)Man(a1-6)[GlcNAc(b1-2)Man(a1-3)]Man(b1-4)GlcNAc(b1-4)GlcNAc
# In short: as §1
# [36] = biological target: Neu5Ac(a2-6)Gal(b1-4)GlcNAc(b1-2)Man(a1-6)[Man(a1-3)]Man(b1-4)GlcNAc(b1-4)GlcNAc
# In short: as §1
# [37] = biological target: Neu5Ac(a2-6)Gal(b1-4)GlcNAc(b1-2)[Neu5Ac(a2-6)Gal(b1-4)GlcNAc(b1-4)]Man(a1-3)[GlcNAc(b1-4)][Neu5Ac(a2-6)Gal(b1-4)GlcNAc(b1-2)[Neu5Ac(a2-6)Gal(b1-4)GlcNAc(b1-6)]Man(a1-6)]Man(b1-4)GlcNAc(b1-4)GlcNAc
# In short: as §1
# [38] = biological target: Neu5Ac(a2-6)Gal(b1-4)GlcNAc(b1-2)[Neu5Ac(a2-6)Gal(b1-4)GlcNAc(b1-4)]Man(a1-3)[GlcNAc(b1-4)][Neu5Ac(a2-6)Gal(b1-4)GlcNAc(b1-4)Man(a1-6)]Man(b1-4)GlcNAc(b1-4)GlcNAc
# In short: as §1
# [39] = biological target: Neu5Ac(a2-6)Gal(b1-4)GlcNAc(b1-2)[Neu5Ac(a2-6)Gal(b1-4)GlcNAc(b1-6)]Man(a1-6)[Neu5Ac(a2-6)Gal(b1-4)GlcNAc(b1-2)Man(a1-3)][GlcNAc(b1-4)]Man(b1-4)GlcNAc(b1-4)GlcNAc
# In short: as §1
# [40] = biological target: Neu5Ac(a2-6)Gal(b1-4)GlcNAc(b1-3)Gal(b1-3)GlcNAc
# In short: as §1
# [41] = biological target: Neu5Ac(a2-6)Gal(b1-4)GlcNAc(b1-3)Gal(b1-4)GlcNAc
# In short: as §1
# [42] = biological target: Neu5Ac(a2-6)Gal(b1-4)GlcNAc(b1-3)Gal(b1-4)GlcNAc(b1-2)Man(a1-3)[Neu5Ac(a2-6)Gal(b1-4)GlcNAc(b1-3)Gal(b1-4)GlcNAc(b1-2)Man(a1-6)]GalNAc
# In short: as §1
binder,measurement,setting,value
B1,glycan array binding signal (z-score),[1],0.095
same,glycan array binding signal (z-score),[2],0.749
same,glycan array binding signal (z-score),[3],0.538
same,glycan array binding signal (z-score),[4],-0.114
same,glycan array binding signal (z-score),[5],-0.857
same,glycan array binding signal (z-score),[6],-0.116
same,glycan array binding signal (z-score),[7],-0.157
same,glycan array binding signal (z-score),[8],-0.558
same,glycan array binding signal (z-score),[9],1.08
same,glycan array binding signal (z-score),[10],-0.105
same,glycan array binding signal (z-score),[11],1.64
same,glycan array binding signal (z-score),[12],-0.65
same,glycan array binding signal (z-score),[13],-0.675
same,glycan array binding signal (z-score),[14],-0.203
same,glycan array binding signal (z-score),[15],-0.909
same,glycan array binding signal (z-score),[16],1.93
same,glycan array binding signal (z-score),Neu5Ac(a2-3)GalNAc,-0.802
same,glycan array binding signal (z-score),[17],0.775
same,glycan array binding signal (z-score),[18],-0.6
same,glycan array binding signal (z-score),[19],-0.992
same,glycan array binding signal (z-score),[20],0.003
same,glycan array binding signal (z-score),[21],-0.165
same,glycan array binding signal (z-score),Neu5Ac(a2-6)Gal,-0.22
same,glycan array binding signal (z-score),[22],-0.242
same,glycan array binding signal (z-score),Neu5Ac(a2-6)Gal(b1-4)Glc,-0.698
same,glycan array binding signal (z-score),[23],-0.374
same,glycan array binding signal (z-score),[24],-0.612
same,glycan array binding signal (z-score),[25],-0.651
same,glycan array binding signal (z-score),[26],0.099
same,glycan array binding signal (z-score),[27],0.163
same,glycan array binding signal (z-score),[28],0.26
same,glycan array binding signal (z-score),[29],-0.534
same,glycan array binding signal (z-score),[30],1.35
same,glycan array binding signal (z-score),[31],1.81
same,glycan array binding signal (z-score),[32],1.34
same,glycan array binding signal (z-score),[33],-0.269
same,glycan array binding signal (z-score),[34],-0.388
same,glycan array binding signal (z-score),[35],-0.159
same,glycan array binding signal (z-score),[36],-0.097
same,glycan array binding signal (z-score),[37],0.322
same,glycan array binding signal (z-score),[38],0.176
same,glycan array binding signal (z-score),[39],0.051
same,glycan array binding signal (z-score),[40],0.855
same,glycan array binding signal (z-score),[41],-1.33
same,glycan array binding signal (z-score),[42],0.348

# Retrieved one by one from the entries so far, 2 records:
binder,measurement,setting,value
B1,glycan array binding signal (z-score),Neu5Ac(a2-3)GalNAc,-0.802
same,glycan array binding signal (z-score),[33],-0.269
